According to paper PMC5314347:
Results are given in words; binding and its absence hold for the method and conditions named. In cells and extracts the contact can be indirect. Some results given as binding are weak or reduced against the parent protein; the word gives no strength. Tags and fused reporters may be left off the sequences shown.

Protein sequences, listed by entry. Tags and fused reporters are not part of them. Lines headed by an entry give the natural chain unless they say otherwise; changes in a name come on top.
UniProt Q9DBL9: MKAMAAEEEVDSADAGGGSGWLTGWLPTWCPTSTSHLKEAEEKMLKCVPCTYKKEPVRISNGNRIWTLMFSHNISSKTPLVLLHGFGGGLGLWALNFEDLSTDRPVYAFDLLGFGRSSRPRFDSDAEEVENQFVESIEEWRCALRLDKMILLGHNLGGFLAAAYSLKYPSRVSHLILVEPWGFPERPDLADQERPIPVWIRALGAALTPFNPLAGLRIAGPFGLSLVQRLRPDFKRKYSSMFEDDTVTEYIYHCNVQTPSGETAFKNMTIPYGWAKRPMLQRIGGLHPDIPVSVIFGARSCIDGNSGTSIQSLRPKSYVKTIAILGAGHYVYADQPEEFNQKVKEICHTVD

Legend:
[1] = biological target: T1, PLIN1-luciferase(C) (perilipin 1) (UniProt Q8CGN5); experiment: split reporter; protein complementation assay (PCA): protein-matched aliquots of lysates of HEK293 cells transfected with ABHD5 (or mutant)-luciferase(N) or PLIN1- or PLIN5-luciferase(C) incubated together with increasing half-log doses of ABHD5 ligand SR4995 for four hrs at room temperature; luminescence read after adding coelenterazine
T1 sequence: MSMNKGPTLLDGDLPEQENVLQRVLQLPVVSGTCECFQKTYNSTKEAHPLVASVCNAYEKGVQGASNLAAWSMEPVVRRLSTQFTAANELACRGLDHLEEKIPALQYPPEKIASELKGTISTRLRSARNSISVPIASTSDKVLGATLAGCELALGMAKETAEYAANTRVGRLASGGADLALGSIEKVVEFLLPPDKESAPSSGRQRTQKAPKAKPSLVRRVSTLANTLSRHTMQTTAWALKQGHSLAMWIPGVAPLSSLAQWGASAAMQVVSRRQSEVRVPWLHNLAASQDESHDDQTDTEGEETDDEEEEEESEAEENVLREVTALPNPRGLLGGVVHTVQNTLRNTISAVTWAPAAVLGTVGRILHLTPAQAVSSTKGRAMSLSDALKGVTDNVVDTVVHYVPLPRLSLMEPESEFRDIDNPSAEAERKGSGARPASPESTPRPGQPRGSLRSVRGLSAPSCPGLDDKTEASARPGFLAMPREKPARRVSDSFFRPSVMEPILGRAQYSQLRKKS

[2] = biological target: T2, PLIN5-luciferase(C) (perilipin 5) (mouse) (UniProt Q8BVZ1); experiment: as above
T2 sequence: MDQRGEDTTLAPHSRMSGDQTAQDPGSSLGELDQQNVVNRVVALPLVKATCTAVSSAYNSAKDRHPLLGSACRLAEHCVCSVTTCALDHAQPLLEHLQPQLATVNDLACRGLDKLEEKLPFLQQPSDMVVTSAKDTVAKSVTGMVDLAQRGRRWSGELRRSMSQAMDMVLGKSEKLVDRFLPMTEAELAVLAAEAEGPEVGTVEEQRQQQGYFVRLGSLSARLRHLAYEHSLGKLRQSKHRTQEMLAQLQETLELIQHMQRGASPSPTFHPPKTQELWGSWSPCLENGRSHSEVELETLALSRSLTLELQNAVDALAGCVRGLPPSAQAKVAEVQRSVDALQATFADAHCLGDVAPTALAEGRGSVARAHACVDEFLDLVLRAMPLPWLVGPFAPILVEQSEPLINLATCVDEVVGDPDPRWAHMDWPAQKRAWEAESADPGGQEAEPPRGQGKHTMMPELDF

Row | binding [1] | binding [2] | Substance
1 | binds | binds | ABHD5 G328S-luciferase(N) (from UniProt Q9DBL9 1-351)
2 | binds | binds | ABHD5 R299N-luciferase(N) (from UniProt Q9DBL9 1-351)
3 | binds | binds | ABHD5-luciferase(N) (alpha-beta hydrolase domain-containing 5, wild type) (from UniProt Q9DBL9 1-351)
